Laboratory results from paper PMC3954793, “SHP-2 Binds to Caveolin-1 and Regulates Src Activity via Competitive Inhibition of CSK in Response to H2O2 in Astrocytes” (PLoS ONE, 2014).
These are yes or no findings as the source states them, for the method shown. For part of these data: In cells and extracts the contact can be indirect. Some results given as binding are weak or reduced against the parent protein; the word gives no strength.

Chains of the proteins cited; added tags and fusions are not shown. Lines headed by an entry give the natural chain unless they say otherwise; changes in a name come on top.
UniProt Q03135: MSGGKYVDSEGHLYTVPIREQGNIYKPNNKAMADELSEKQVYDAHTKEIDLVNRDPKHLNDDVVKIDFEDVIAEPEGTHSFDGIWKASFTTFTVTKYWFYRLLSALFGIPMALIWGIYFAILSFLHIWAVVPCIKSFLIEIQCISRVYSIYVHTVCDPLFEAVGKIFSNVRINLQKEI
UniProt P41240: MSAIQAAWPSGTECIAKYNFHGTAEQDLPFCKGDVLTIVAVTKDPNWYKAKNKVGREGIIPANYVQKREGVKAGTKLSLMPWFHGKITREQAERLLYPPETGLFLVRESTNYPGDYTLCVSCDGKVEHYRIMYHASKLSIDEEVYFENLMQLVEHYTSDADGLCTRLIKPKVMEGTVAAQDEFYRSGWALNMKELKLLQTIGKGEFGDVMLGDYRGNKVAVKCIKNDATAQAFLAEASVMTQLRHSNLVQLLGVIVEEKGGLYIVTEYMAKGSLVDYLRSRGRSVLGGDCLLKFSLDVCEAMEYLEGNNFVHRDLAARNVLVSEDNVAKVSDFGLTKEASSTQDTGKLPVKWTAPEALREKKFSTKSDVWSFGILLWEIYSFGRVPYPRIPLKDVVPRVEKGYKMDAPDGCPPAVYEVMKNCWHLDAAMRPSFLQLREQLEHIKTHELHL

Key:
[1] = target: phosphorylation-deficient caveolin-1 mutant (Y14A) (human) (UniProt Q03135); experiment: co-IP; HEK 293T cells transfected with caveolin-1 WT or Y14A, 5 mM H2O2 for 10 min; 700 µg lysate in RIPA buffer; immunoprecipitation with anti-CSK, anti-SHP-2 or anti-caveolin-1, immunoblot
[2] = target: T1, caveolin-1 phosphopeptide Cav-1 pY 14 (human); experiment: SPR; reverse orientation: Cav-1 pY 14 immobilised on the chip (via covalently bound streptavidin), rGST-SHP-2 or rGST-CSK injected; both purified
T1 sequence (peptide, phosphotyrosine at position 4 of the peptide (Tyr 14 of caveolin-1)): GHLYTVPIREQGN

[3] = target: caveolin-1 peptide, residues 9–21 (spot 2 of the caveolin-1 (1–85) PepSPOT array) (human) (UniProt Q03135); experiment: peptide or protein array; PepSPOTs membrane with 13-mer peptides of caveolin-1 (1–85) overlapping by 5 residues, Tyr 6, 14, 25 and 42 phosphorylated; incubated overnight with 1 µg rGST-SHP-2 or rGST-CSK, detected by immunoblotting; both purified

Substance | binding [1] | binding [2] | binding [3]
c-Src tyrosine kinase (CSK) (from UniProt P41240 1-450) (enzyme) | no binding | – | –
recombinant glutathione S-transferase (GST)-CSK (from UniProt P41240 1-450) (enzyme) | – | binds | binds
